Reference: patent US9725423B2, “Tetrazolinone compound and applications thereof” (SUMITOMO CHEMICAL COMPANY, LIMITED, priority 2012, dated 2017)
Some of these results come from one statement about several compounds together.

Tests used:
Type in all cases: in vivo
[1] = system: barley net blotch fungus (Pyrenophora teres); test: Barley net blotch control test, foliar spray on barley (Test Examples 3, 9); conditions: barley (MIKAMO GOLDEN), inoculated two days after spraying
[2] = system: barley scald fungus (Rhynchosporium secalis); test: Barley scald control test, foliar spray on barley (Test Example 14); conditions: 200 ppm, barley (MIKAMO GOLDEN), inoculated two days after spraying
[3] = system: soybean rust fungus (Phakopsora pachyrhizi); test: Soybean rust control test, foliar spray on soybean (Test Example 13); conditions: 200 ppm, soybean (KUROSENGOKU), inoculated two days after spraying
[4] = system: wheat leaf blotch fungus (Septoria tritici); test: Wheat leaf blotch control test, foliar spray on wheat (Test Examples 5, 11); conditions: wheat (APOGEE), inoculated four days after spraying
[5] = system: cucumber powdery mildew fungus (Sphaerotheca fuliginea); test: Cucumber powdery mildew control test, foliar spray on cucumber (Test Examples 6, 12, Comparative Test Example); conditions: cucumber (SAGAMI HANJIRO), 8 days after inoculation
[6] = system: kidney bean stem rot fungus (Sclerotinia sclerotiorum); test: Kidney bean stem rot control test, foliar spray on kidney bean (Test Examples 4, 10); conditions: kidney bean (NAGAUZURA INGEN), four days after inoculation

Measured: area of lesion spots relative to that on an untreated plant

CC(=NOCc1c(C)cccc1-n1nnn(C)c1=O)c1cc(C)cc(C)c1 [present compound 38, 1-{3-methyl-2-[1-(3,5-dimethylphenyl)ethylideneaminooxymethyl]phenyl}-4-methyl-1,4-dihydrotetrazol-5-one]
≤ 30%: [1]; 500 ppm | [2] | [3] | [4]; 500 ppm | [5]; 500 ppm | [6]; 500 ppm

CC(=NOCc1c(C)cccc1-n1nnn(C)c1=O)c1cccc2c1CCC2 [present compound 110, 1-[2-(1-indan-4-ylethylideneaminooxymethyl)-3-methylphenyl]-4-methyl-1,4-dihydrotetrazol-5-one]
≤ 30%: [1]; 500 ppm | [2] | [3] | [4]; 500 ppm | [5]; 500 ppm | [6]; 500 ppm

CC(=NOCc1c(C)cccc1-n1nnn(C)c1=O)c1cccc(C2CC2)c1C [present compound 144, 1-{2-[1-(3-cyclopropyl-2-methylphenyl)ethylideneaminooxymethyl]-3-methylphenyl}-4-methyl-1,4-dihydrotetrazol-5-one]
≤ 30%: [1]; 500 ppm | [2] | [3] | [4]; 500 ppm | [5]; 500 ppm | [6]; 500 ppm

CC(=NOCc1c(OC(F)F)cccc1-n1nnn(C)c1=O)c1cccc2c1CCC2 [present compound 151, 1-[3-difluoromethoxy-2-(1-indan-4-ylethylideneaminooxymethyl)phenyl]-4-methyl-1,4-dihydrotetrazol-5-one]
≤ 30%: [1]; 200 ppm | [1]; 500 ppm | [2] | [4]; 500 ppm | [5]; 500 ppm | [6]; 500 ppm

CC(=NOCc1c(C)cccc1-n1nnn(C)c1=O)c1cccc2c1CCO2 [present compound 152, 1-{2-[1-(2,3-dihydrobenzofuran-4-yl)ethylideneaminooxymethyl]-3-methylphenyl]-4-methyl-1,4-dihydrotetrazol-5-one]
≤ 30%: [1]; 500 ppm | [2] | [3] | [4]; 500 ppm | [5]; 200 ppm | [6]; 500 ppm

CC(=NOCc1c(C)cccc1-n1nnn(C)c1=O)c1cccc(-c2ccccc2)c1 [present compound 155, 1-[2-(1-biphenyl-3-ylethylideneaminooxymethyl)-3-methylphenyl]-4-m ethyl-1,4-dihydrotetrazol-5-one]
≤ 30%: [1]; 500 ppm | [2] | [4]; 500 ppm | [5]; 500 ppm | [6]; 200 ppm

CC(=NOCc1c(C)cccc1-n1nnn(C)c1=O)C1=CCCCC1 [present compound 202, 1-[2-(1-cyclohex-1-enylethylideneaminooxymethyl)-3-methylphenyl]-4-methyl-1,4-dihydrotetrazol-5-one]
≤ 30%: [1]; 500 ppm | [2] | [4]; 500 ppm | [5]; 500 ppm | [6]; 500 ppm

CC=C(C)C(C)=NOCc1c(C)cccc1-n1nnn(C)c1=O [present compound 203, 1-[2-(1,2-dimethylbutan-2-enylideneaminooxymethyl)-3-methylphenyl]-4-methyl-1,4-dihydrotetrazol-5-one]
≤ 30%: [1]; 500 ppm | [2] | [3] | [4]; 500 ppm | [5]; 500 ppm | [6]; 500 ppm

CC(C=Cc1ccccc1)=NOCc1c(C)cccc1-n1nnn(C)c1=O [present compound 205, 1-methyl-4-[3-methyl-2-(1-methyl-3-phenylallylideneaminooxymethyl)phenyl]-1,4-dihydrotetrazol-5-one]
≤ 30%: [1]; 200 ppm | [1]; 500 ppm | [2] | [4]; 200 ppm | [5]; 500 ppm | [6]; 500 ppm

CON=C(C(C)=NOCc1c(OC)cccc1-n1nnn(C)c1=O)c1ccccc1 [present compound 215, 1-phenylpropane-1,2-dion-2-{O-[2-methoxy-6-(4-methyl-5-oxo-4,5-dihydrotetrazol-1-yl)benzyl]oxime}-1-(O-methyloxime)]
≤ 30%: [1]; 500 ppm | [2] | [3] | [4]; 500 ppm | [5]; 500 ppm | [6]; 500 ppm

CC(=NOCc1c(C)cccc1-n1nnn(C)c1=O)C1CC1c1ccc(Cl)cc1 (stereo not shown) [present compound 216, 1-(2-{1-[2-(4-chlorophenyl)cyclopropyl]ethylideneaminooxymethyl}-3-methylphenyl)-4-methyl-1,4-dihydrotetrazol-5-one]
≤ 30%: [1]; 500 ppm | [2] | [4]; 500 ppm | [5]; 500 ppm | [6]; 500 ppm

CC(=NOCc1c(C)cccc1-n1nnn(C)c1=O)C1CC1c1c(Cl)cccc1Cl (stereo not shown) [present compound 217, 1-(2-{1-[2-(2,6-dichlorophenyl)cyclopropyl]ethylideneaminooxymethy 1}-3-methylphenyl)-4-methyl-1,4-dihydrotetrazol-5-one]
≤ 30%: [1]; 500 ppm | [2] | [3] | [4]; 500 ppm | [5]; 500 ppm | [6]; 500 ppm

CC(=NOCc1c(C)cccc1-n1nnn(C)c1=O)c1cccs1 [present compound 257, 1-methyl-4-{3-methyl-2-[1-(2-thienyl)ethylideneaminooxymethyl]phenyl}-1,4-dihydrotetrazol-5-one]
≤ 30%: [1]; 500 ppm | [2] | [4]; 500 ppm | [5]; 500 ppm | [6]; 500 ppm

CC(=NOCc1c(C)cccc1-n1nnn(C)c1=O)c1sccc1C [present compound 258, 1-methyl-4-{3-methyl-2-[1-(3-methyl-2-thienyl)ethylideneaminooxymethyl]phenyl}-1,4-dihydrotetrazol-5-one]
≤ 30%: [1]; 500 ppm | [2] | [4]; 500 ppm | [5]; 500 ppm | [6]; 500 ppm
